Experimental data: the supplement of paper PMC8728848
Some of the results follow.

What was measured:
Assay in all cases: glycan array binding signal (z-score within array); higher = stronger binding
Details in all cases: glycan notation: IUPAC condensed, linker removed
[1] = molecular target: Gal(b1-3)GlcNAc(b1-3)Gal(b1-4)GlcNAc(b1-2)[Gal(b1-3)GlcNAc(b1-3)Gal(b1-4)GlcNAc(b1-6)]Man(a1-6)[Gal(b1-3)GlcNAc(b1-3)Gal(b1-4)GlcNAc(b1-2)Man(a1-3)]Man(b1-4)GlcNAc(b1-4)[Fuc(a1-6)]GlcNAc
Summary of the method: (§1)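 Glycan array binding is given as a within-array Z-score, which can be read as non-binding when negative. The arrays, 3228 of them, came from the Consortium for Functional Glycomics database and were retained only where the protein sequence was available. Z-scores were averaged across arrays of the same protein sequence at different concentrations or buffers and across linkers.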

[2] = molecular target: Gal(b1-3)GlcNAc(b1-3)Gal(b1-4)GlcNAc(b1-3)Gal(b1-4)GlcNAc(b1-2)[Gal(b1-3)GlcNAc(b1-3)Gal(b1-4)GlcNAc(b1-3)Gal(b1-4)GlcNAc(b1-6)]Man(a1-6)[Gal(b1-3)GlcNAc(b1-3)Gal(b1-4)GlcNAc(b1-3)Gal(b1-4)GlcNAc(b1-2)Man(a1-3)]Man(b1-4)GlcNAc(b1-4)[Fuc(a1-6)]GlcNAc
Summary of the method: as §1

[3] = molecular target: Gal(b1-3)GlcNAc(b1-3)Gal(b1-4)GlcNAc(b1-6)[Gal(b1-3)GlcNAc(b1-3)]Gal(b1-4)Glc
Summary of the method: as §1

[4] = molecular target: Gal(b1-3)GlcNAc(b1-3)Gal(b1-4)[Fuc(a1-3)]GlcNAc
Summary of the method: as §1

[5] = molecular target: Gal(b1-3)GlcNAc(b1-3)Gal(b1-4)[Fuc(a1-3)]GlcNAc(b1-6)[Gal(b1-3)GlcNAc(b1-3)]Gal(b1-4)Glc
Summary of the method: as §1

[6] = molecular target: Gal(b1-3)GlcNAc(b1-3)GalNAc
Summary of the method: as §1

[7] = molecular target: Gal(b1-3)GlcNAc(b1-6)Gal(b1-4)GlcNAc
Summary of the method: as §1

[8] = molecular target: Gal(b1-3)GlcNAc(b1-6)GalNAc
Summary of the method: as §1

[9] = molecular target: Gal(b1-3)GlcNAc(b1-6)[Gal(b1-3)]GalNAc
Summary of the method: as §1

Gal(b1-3)GlcNAc6S = molecular target: Gal(b1-3)GlcNAc6S
Summary of the method: as §1

[10] = molecular target: Gal(b1-3)[Fuc(a1-4)]GlcNAc
Summary of the method: as §1

[11] = molecular target: Gal(b1-3)[Fuc(a1-4)]GlcNAc(b1-2)Man
Summary of the method: as §1

[12] = molecular target: Gal(b1-3)[Fuc(a1-4)]GlcNAc(b1-2)Man(a1-3)[Gal(b1-3)[Fuc(a1-4)]GlcNAc(b1-2)Man(a1-6)]Man(b1-4)GlcNAc(b1-4)[Fuc(a1-6)]GlcNAc
Summary of the method: as §1

[13] = molecular target: Gal(b1-3)[Fuc(a1-4)]GlcNAc(b1-3)Gal(b1-3)[Fuc(a1-4)]GlcNAc
Summary of the method: as §1

[14] = molecular target: Gal(b1-3)[Fuc(a1-4)]GlcNAc(b1-3)Gal(b1-4)[Fuc(a1-3)]GlcNAc
Summary of the method: as §1

[15] = molecular target: Gal(b1-3)[Fuc(a1-4)]GlcNAc(b1-6)GalNAc
Summary of the method: as §1

[16] = molecular target: Gal(b1-3)[GlcNAc(b1-6)]GalNAc
Summary of the method: as §1

[17] = molecular target: Gal(b1-3)[Neu5Ac(a2-6)]GalNAc
Summary of the method: as §1

[18] = molecular target: Gal(b1-3)[Neu5Ac(a2-6)]GlcNAc(b1-4)Gal(b1-4)Glc
Summary of the method: as §1

[19] = molecular target: Gal(b1-3)[Neu5Ac(b2-6)]GalNAc
Summary of the method: as §1

Gal(b1-4)Gal = molecular target: Gal(b1-4)Gal
Summary of the method: as §1

[20] = molecular target: Gal(b1-4)GalNAc(a1-3)[Fuc(a1-2)]Gal(b1-4)GlcNAc
Summary of the method: as §1

[21] = molecular target: Gal(b1-4)GalNAc(b1-3)[Fuc(a1-2)]Gal(b1-4)GlcNAc
Summary of the method: as §1

Gal(b1-4)Glc = molecular target: Gal(b1-4)Glc
Summary of the method: as §1

Gal(b1-4)Glc6S = molecular target: Gal(b1-4)Glc6S
Summary of the method: as §1

Gal(b1-4)GlcNAc = molecular target: Gal(b1-4)GlcNAc
Summary of the method: as §1

[22] = molecular target: Gal(b1-4)GlcNAc(a1-6)Gal(b1-4)GlcNAc
Summary of the method: as §1

Gal(b1-4)GlcNAc(b1-2)Man = molecular target: Gal(b1-4)GlcNAc(b1-2)Man
Summary of the method: as §1

[23] = molecular target: Gal(b1-4)GlcNAc(b1-2)Man(a1-3)Man(b1-4)GlcNAc(b1-4)GlcNAc
Summary of the method: as §1

[24] = molecular target: Gal(b1-4)GlcNAc(b1-2)Man(a1-3)[Gal(b1-4)GlcNAc(b1-2)Man(a1-6)]Man(b1-4)GlcNAc(b1-4)GlcNAc
Summary of the method: as §1

[25] = molecular target: Gal(b1-4)GlcNAc(b1-2)Man(a1-3)[Gal(b1-4)GlcNAc(b1-2)Man(a1-6)]Man(b1-4)GlcNAc(b1-4)[Fuc(a1-6)]GlcNAc
Summary of the method: as §1

[26] = molecular target: Gal(b1-4)GlcNAc(b1-2)Man(a1-3)[Gal(b1-4)GlcNAc(b1-2)Man(a1-6)][Gal(b1-4)GlcNAc(b1-4)]Man(b1-4)GlcNAc(b1-4)[Fuc(a1-6)]GlcNAc
Summary of the method: as §1

[27] = molecular target: Gal(b1-4)GlcNAc(b1-2)Man(a1-3)[Gal(b1-4)GlcNAc(b1-2)Man(a1-6)][GlcNAc(b1-4)]Man(b1-4)GlcNAc(b1-4)[Fuc(a1-6)]GlcNAc
Summary of the method: as §1

[28] = molecular target: Gal(b1-4)GlcNAc(b1-2)Man(a1-3)[GlcNAc(b1-2)Man(a1-6)]Man(b1-4)GlcNAc(b1-4)GlcNAc
Summary of the method: as §1

[29] = molecular target: Gal(b1-4)GlcNAc(b1-2)Man(a1-3)[GlcNAc(b1-4)][Gal(b1-4)GlcNAc(b1-2)Man(a1-6)]Man(b1-4)GlcNAc(b1-4)GlcNAc
Summary of the method: as §1

[30] = molecular target: Gal(b1-4)GlcNAc(b1-2)Man(a1-3)[Man(a1-6)]Man(b1-4)GlcNAc(b1-4)GlcNAc
Summary of the method: as §1

[31] = molecular target: Gal(b1-4)GlcNAc(b1-2)Man(a1-6)Man(b1-4)GlcNAc(b1-4)GlcNAc
Summary of the method: as §1

[32] = molecular target: Gal(b1-4)GlcNAc(b1-2)Man(a1-6)[GlcNAc(b1-2)Man(a1-3)]Man(b1-4)GlcNAc(b1-4)GlcNAc
Summary of the method: as §1

B1: Thrombomodulin Lectin (Mus musculus) (protein)
chain: LSALAKLQPTGSQCVEHECFALFQGPATFLDASQACQRLQGHLMTVRSSVAADVISLLLSQSSMDLGPWIGLQLPQGCDDPVHLGPLRGFQWVTGDNHTSYSRWARPNDQTAPLCGPLCVTVSTATEAAPGEPAWEEKPCETETQGFLCEFYFTASCRVDPIPVREDTKEEEGAGEPPVSPTPGSPTGPPSARPVLDEPRVPITQNPCPPLKECPPCAAPDLEGGPSVFIFPPKIKDVLMISLSPMVTCVVVDVSEDDPDVQISWFVNNVEVHTAQTQTHREDYNSTLRVVSALPIQHQDWMSGKAFACAVNNRALPSPIEKTISKPRGPVRAPQVYVLPPPAEEMTKKEFSLTCMITGFLPAEIAVDWTSNGRTEQNYKNTATVLDSDGSYFMYSKLRVQKSTWERGSLFACSVVHEGLHNHLTTKTISRSLGK
[1]
  glycan array binding signal (z-score): 1.65
[2]
  glycan array binding signal (z-score): -0.572
[3]
  glycan array binding signal (z-score): -0.163
[4]
  glycan array binding signal (z-score): 0.335
[5]
  glycan array binding signal (z-score): -0.562
[6]
  glycan array binding signal (z-score): -0.36
[7]
  glycan array binding signal (z-score): -0.581
[8]
  glycan array binding signal (z-score): -0.365
[9]
  glycan array binding signal (z-score): 0.044
Gal(b1-3)GlcNAc6S
  glycan array binding signal (z-score): -1.01
[10]
  glycan array binding signal (z-score): 0.138
[11]
  glycan array binding signal (z-score): 0.806
[12]
  glycan array binding signal (z-score): 1.04
[13]
  glycan array binding signal (z-score): 1.08
[14]
  glycan array binding signal (z-score): -0.275
[15]
  glycan array binding signal (z-score): -0.03
[16]
  glycan array binding signal (z-score): 0.434
[17]
  glycan array binding signal (z-score): -0.959
[18]
  glycan array binding signal (z-score): -2.08
[19]
  glycan array binding signal (z-score): -0.837
Gal(b1-4)Gal
  glycan array binding signal (z-score): -0.267
[20]
  glycan array binding signal (z-score): -0.489
[21]
  glycan array binding signal (z-score): -0.082
Gal(b1-4)Glc
  glycan array binding signal (z-score): -0.164
Gal(b1-4)Glc6S
  glycan array binding signal (z-score): 0.801
Gal(b1-4)GlcNAc
  glycan array binding signal (z-score): 0.191
[22]
  glycan array binding signal (z-score): -2.05
Gal(b1-4)GlcNAc(b1-2)Man
  glycan array binding signal (z-score): -1.6
[23]
  glycan array binding signal (z-score): 0.338
[24]
  glycan array binding signal (z-score): 0.94
[25]
  glycan array binding signal (z-score): 0.204
[26]
  glycan array binding signal (z-score): 0.267
[27]
  glycan array binding signal (z-score): -0.788
[28]
  glycan array binding signal (z-score): -1.49
[29]
  glycan array binding signal (z-score): 0.119
[30]
  glycan array binding signal (z-score): -0.565
[31]
  glycan array binding signal (z-score): -0.184
[32]
  glycan array binding signal (z-score): -0.817
